From patent publication US20080199503A1, “Pharmaceutical Compositions Preparation of Peptides, Secreted by the Snake Venom Glands, Particularly of Bothrops Jararaca, Vasopeptidases Inhibitors, Evasins, Their Analogues, Derivatives and Products Associated, Thereof, for Development of Applications and Use in Chronic-Degenerative Diseases” (priority 2002, published 2008)
These are yes or no findings as the source states them, for the method shown. A result given as binding can be weak or reduced; the word gives no strength.

molecular target: recombinant neutral endopeptidase; test: fluorogenic substrate (Abz-RL-EDDnp) inhibition assay, recombinant NEP

**Q.** With EGWAWPRPQIPP (pyroglutamic acid (<E) at position 1 (N-terminus)) [EVASIN-12a] as the binder, how does the binding read?
**A.** Its binding is “binds”.

**Q.** Which binding does the source give for EGRAPGPPIPP (pyroglutamic acid (<E) at position 1 (N-terminus)) [EVASIN-11b] here?
**A.** Its binding is “binds”.

**Q.** How did the binding turn out when EGGWPRPGPEIPP (pyroglutamic acid (<E) at position 1 (N-terminus)) [EVASIN-13a] was run?
**A.** The binding was “binds”.

**Q.** EGRAPHPPIPP (pyroglutamic acid (<E) at position 1 (N-terminus)) [EVASIN-11c] was tested. Which binding did it give?
**A.** Its binding is “binds”.

**Q.** Which binding does the source give for EKWAP (pyroglutamic acid (<E) at position 1 (N-terminus)) [EVASIN-5a] here?
**A.** The binding was “binds”.

**Q.** Which binding does the source give for EWPRPQIPP (pyroglutamic acid (<E) at position 1 (N-terminus)) [EVASIN-9a] here?
**A.** The binding was “binds”.
